No constants are given. Whether binding was seen depends on the method and setting. Some results given as binding are weak or reduced against the parent protein; the word gives no strength. Tags and fused reporters may be left off the sequences shown.

Here are results for 1 molecule from article PMC7138817, “The [4Fe-4S] cluster of sulfurtransferase TtuA desulfurizes TtuB during tRNA modification in Thermus thermophilus” (Communications Biology, 2020).

Experiment [1] concerns the target T1, TtuA from Thermus thermophilus (HB27 strain) possessing the [4Fe-4S] cluster, co-expressed with TtuB (Thermus thermophilus (HB27 strain)) (UniProt Q72LF3).
T1 sequence: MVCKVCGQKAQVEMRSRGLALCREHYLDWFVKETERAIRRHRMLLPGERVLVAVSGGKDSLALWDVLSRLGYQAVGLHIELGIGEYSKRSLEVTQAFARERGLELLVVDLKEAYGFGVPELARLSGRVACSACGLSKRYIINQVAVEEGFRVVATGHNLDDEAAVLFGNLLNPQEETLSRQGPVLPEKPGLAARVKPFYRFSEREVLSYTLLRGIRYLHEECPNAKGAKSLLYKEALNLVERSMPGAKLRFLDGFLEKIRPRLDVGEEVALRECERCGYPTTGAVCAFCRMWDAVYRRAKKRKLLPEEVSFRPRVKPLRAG
The experiment is described as follows: EPR spectroscopy; co-expressed TtuA-TtuB(COOH) complex as used for X-ray crystallography; temperature dependence and simulation of the spectra compared with TtuA plus TtuB-COSH; both purified.

For experiment [2], the target named is T1, TtuA from Thermus thermophilus (HB27 strain) possessing the [4Fe-4S] cluster, co-expressed with TtuB (Thermus thermophilus (HB27 strain)). Kind of experiment: crystal structure; co-expressed and co-purified holo-TtuA-TtuB, 13.4 mg/ml, sitting drop vapor diffusion at 293 K, anaerobic; 0.15 M ammonium sulfate, 0.1 M Tris pH 8.0, 15% PEG 4000; crystals soaked with ATP; both purified.

B1: TtuB-COOH from Thermus thermophilus (HB27 strain), His6-tagged, co-expressed with TtuA (protein, UniProt Q72LF4 2-65)
chain: RVVLRLPERKEVEVKGNRPLREVLEELGLNPETVVAVRGEELLTLEDEVREEDTLEVLSAISGG
Turning to B1, the binding result in experiment [1] and in experiment [2] was “binds” in each case.
